These are yes or no findings as the source states them, for the method shown. Some entries that bind do so weakly or less than the wild type.
Key:
[1] = biological target: LRP6 on LRP6-transduced HT1080 cells (human) (UniProt O75581); assay: radioligand binding; 125I-Mesd (5 nM) on monolayers of LRP6-transduced HT1080 cells or LRP5-transfected ldlA7 cells, 4 h at 4°C, minimal Eagle's medium with 0.6% BSA, in the absence or presence of unlabeled Mesd or Mesd peptides; cells washed, lysed and counted; only the binder purified
[2] = biological target: LRP5 on LRP5-transfected ldlA7 (LDLR-deficient CHO) cells (human) (UniProt O75197); assay: as above

The chains behind the UniProt entries cited, without tags or fusion partners. Residues count along the entry.
UniProt O75581, residues 20-1613: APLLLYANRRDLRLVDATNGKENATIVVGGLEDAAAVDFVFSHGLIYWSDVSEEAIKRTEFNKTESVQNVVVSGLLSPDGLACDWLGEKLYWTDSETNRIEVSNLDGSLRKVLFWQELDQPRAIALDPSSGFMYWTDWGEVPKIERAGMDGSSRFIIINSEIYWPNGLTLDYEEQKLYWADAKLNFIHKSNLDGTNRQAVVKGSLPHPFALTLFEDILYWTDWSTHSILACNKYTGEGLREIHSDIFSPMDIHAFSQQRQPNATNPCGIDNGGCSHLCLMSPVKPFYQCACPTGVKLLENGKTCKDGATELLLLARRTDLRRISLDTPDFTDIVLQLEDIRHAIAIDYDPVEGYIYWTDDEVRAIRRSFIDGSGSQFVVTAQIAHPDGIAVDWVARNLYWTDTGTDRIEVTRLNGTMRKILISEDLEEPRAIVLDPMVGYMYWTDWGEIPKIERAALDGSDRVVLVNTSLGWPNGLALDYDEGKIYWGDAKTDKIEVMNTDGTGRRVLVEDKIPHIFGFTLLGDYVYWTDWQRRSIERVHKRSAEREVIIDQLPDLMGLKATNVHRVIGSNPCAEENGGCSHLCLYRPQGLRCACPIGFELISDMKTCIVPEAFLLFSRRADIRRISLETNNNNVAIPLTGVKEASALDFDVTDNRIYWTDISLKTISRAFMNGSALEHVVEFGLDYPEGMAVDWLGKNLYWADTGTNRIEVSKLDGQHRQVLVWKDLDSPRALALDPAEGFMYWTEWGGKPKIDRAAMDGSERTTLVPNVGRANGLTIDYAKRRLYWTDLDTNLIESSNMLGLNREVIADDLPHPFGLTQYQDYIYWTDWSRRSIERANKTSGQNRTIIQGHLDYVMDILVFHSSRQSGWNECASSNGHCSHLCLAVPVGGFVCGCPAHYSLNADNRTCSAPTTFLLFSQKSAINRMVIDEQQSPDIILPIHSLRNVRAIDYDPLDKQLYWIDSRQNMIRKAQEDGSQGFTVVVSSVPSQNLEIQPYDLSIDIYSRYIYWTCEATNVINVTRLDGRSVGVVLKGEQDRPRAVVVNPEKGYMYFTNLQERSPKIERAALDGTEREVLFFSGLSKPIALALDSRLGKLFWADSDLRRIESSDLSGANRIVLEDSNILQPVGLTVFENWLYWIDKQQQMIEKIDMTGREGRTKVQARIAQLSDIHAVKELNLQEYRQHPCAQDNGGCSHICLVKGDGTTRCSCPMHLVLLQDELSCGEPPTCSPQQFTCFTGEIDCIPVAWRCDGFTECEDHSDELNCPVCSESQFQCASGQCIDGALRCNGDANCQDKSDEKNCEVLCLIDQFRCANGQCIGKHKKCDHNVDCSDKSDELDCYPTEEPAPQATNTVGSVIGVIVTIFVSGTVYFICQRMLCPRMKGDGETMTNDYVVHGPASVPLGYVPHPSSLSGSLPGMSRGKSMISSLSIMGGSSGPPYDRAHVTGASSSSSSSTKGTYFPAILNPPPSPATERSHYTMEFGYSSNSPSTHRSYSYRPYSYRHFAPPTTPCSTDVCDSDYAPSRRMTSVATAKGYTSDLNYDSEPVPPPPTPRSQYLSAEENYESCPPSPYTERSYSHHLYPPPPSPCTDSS
UniProt O75197, residues 32-1615: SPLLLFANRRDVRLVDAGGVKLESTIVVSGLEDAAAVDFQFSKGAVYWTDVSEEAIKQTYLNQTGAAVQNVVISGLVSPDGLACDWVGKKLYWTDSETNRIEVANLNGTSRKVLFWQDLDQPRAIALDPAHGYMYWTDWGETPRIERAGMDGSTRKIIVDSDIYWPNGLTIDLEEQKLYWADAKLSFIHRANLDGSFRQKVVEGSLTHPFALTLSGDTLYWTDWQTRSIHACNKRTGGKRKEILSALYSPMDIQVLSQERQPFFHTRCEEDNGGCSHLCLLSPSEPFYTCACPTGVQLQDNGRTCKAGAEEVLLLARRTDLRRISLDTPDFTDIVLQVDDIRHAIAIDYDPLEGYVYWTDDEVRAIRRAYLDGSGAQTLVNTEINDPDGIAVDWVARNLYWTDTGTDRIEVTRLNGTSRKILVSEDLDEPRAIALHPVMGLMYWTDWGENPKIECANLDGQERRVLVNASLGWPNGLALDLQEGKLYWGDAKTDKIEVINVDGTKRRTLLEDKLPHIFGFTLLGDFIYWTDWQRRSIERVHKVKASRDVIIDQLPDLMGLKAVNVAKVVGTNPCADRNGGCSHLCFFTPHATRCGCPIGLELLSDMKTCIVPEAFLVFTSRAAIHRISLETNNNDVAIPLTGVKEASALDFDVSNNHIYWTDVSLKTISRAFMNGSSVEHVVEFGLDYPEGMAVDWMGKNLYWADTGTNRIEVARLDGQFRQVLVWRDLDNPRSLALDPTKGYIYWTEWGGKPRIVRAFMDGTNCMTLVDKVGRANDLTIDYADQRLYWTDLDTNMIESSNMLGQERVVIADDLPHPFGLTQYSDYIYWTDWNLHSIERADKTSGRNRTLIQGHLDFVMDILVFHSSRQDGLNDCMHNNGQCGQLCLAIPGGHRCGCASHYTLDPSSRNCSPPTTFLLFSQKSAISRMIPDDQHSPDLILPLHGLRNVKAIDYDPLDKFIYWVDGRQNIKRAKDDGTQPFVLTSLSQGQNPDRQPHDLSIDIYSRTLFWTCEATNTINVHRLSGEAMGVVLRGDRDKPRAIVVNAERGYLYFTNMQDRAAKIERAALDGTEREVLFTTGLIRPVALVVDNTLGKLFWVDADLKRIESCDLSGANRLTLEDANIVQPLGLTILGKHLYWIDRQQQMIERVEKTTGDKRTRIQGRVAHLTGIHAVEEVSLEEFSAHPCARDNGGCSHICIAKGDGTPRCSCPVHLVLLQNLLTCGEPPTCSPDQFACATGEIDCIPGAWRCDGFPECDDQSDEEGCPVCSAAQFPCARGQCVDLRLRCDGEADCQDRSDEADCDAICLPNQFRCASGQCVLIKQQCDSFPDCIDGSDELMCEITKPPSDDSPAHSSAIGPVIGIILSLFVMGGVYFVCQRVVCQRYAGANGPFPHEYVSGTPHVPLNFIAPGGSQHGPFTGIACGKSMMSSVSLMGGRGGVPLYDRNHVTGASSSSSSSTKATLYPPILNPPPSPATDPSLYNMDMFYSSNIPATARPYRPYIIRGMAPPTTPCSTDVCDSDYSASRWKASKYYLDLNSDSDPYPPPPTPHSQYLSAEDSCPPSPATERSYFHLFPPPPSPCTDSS

Row | Binder | binding [1] | binding [2]
1 | recombinant mouse Mesd protein (protein, UniProt Q9ERE7 30-224, 125I (IODO-GEN method) on the radioligand; unlabeled when used as competitor) ADTPGEATPPPRKKKDIRDYNDADMARLLEQWEKDDDIEEGDLPEHKRPSAPIDFSKLDPGKPESILKMTKKGKTLMMFVTVSGNPTEKETEEITSLWQGSLFNANYDVQRFIVGSDRAIFMLRDGSYAWEIKDFLVSQDRCAEVTLEGQMYPGKGGGSKEKNKTKPEKAKKKEGDPKPRASKEDNRAGSRREDL | binds | binds
2 | QMYPGKGGGSKEKNKTKPEKAKKKEGDPKPRASKEDNRAGSRREDL (peptide, UniProt Q9ERE7 179-224) [mouse Mesd C-terminal region peptide mMesd (150–195)] | binds | binds

— paper PMC3585277, “The C-Terminal Region Mesd Peptide Mimics Full-Length Mesd and Acts as an Inhibitor of Wnt/β-Catenin Signaling in Cancer Cells” (PLoS ONE, 2013)
